doi:10.1101/2023.07.09.548245
These are yes or no findings as the source states them, for the method shown. Some results given as binding are weak or reduced against the parent protein; the word gives no strength.

Amino acid sequences for entries named in this document (tags omitted). Residues count along the entry.
UniProt P80098, residues 24-99: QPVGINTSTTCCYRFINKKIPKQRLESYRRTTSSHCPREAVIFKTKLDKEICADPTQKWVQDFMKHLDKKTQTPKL

Target: T1, Truncated DARC (27-322) for HDX-MS (human) (UniProt Q4VBN9)
T1 sequence (chain, free cysteines blocked with iodoacetamide; glycosylation removed with PNGase): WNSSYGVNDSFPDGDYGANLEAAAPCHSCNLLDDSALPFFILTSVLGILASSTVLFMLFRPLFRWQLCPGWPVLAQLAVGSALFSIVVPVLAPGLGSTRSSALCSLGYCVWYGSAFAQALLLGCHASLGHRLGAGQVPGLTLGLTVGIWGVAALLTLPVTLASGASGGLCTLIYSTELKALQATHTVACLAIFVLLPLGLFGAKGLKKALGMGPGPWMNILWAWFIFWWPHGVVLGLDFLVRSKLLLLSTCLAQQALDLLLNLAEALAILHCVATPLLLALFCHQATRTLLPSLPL
Experiment: HDX-MS

binding: binds
Substance: Recombinant human CCL7 (from UniProt P80098 24-99) (ligand)
